In patent publication US20070036794A1:

B1: anti-trkC agonist monoclonal antibody 2349 (antibody, human IgG4, V domains shown)
VH: QVQLQESGPGLVKPSQTLSLTCTVSGGSISSGYYYWSWIRQHPGKGLEWIGYIYYSGSTYYNPSLKSRLTISVDTSKNQFSLKLSSVTAADTAVYYCARERIAAAGTDYYYNGLAVWGQGTTVTVSS
VL: GIVLTQSPGTLSLSPGERATFSCRASQSGSSTYLAWYQQKPGQAPRLLIYGASSRATGIPDRFSGSGSGTDFTLTISRLEPEDFAVYYCQQYGRSPPITFGQGTRLEIKR
B2: anti-trkC agonist monoclonal antibody 2253 (antibody, mouse IgG1, V domains shown)
VH: QVQLQQSGAELMQPGASVKISCKSTGYTFSNFWIEWVKQRPGHGLEWIGEILPGSDNTNYNEKFKGKATFTADTSSNTAYMQLSSLTSEDSAVYYCARKNRNYYGNYVVWGAGTTLTVSS
VL: QIVLTQSPAIMSASPGEKVTITCSASSSVSYMYWFQQKPGTSPKLWIYSTSNLASGVPARFSGSGSGTSYSLTISRMEAEDAATYYCQQRSSYPLTFGAGTKLELKR

Columns and labels:
[1] = molecular target: trkC (antigen of the immunoblot of Table 3) (Homo sapiens (Human)); assay: immunoblot, reduced (Red.) trkC
[2] = molecular target: trkC (antigen of the immunoblot of Table 3) (Homo sapiens (Human)); assay: immunoblot, non-reduced (NR) trkC

Binder | binding [1] | binding [2]
B1 | binds | binds
B2 | binds | binds

These are yes or no findings as the source states them, for the method shown. Binding can be weak; no strength is given.
